According to US20240374763A1, “DIAGNOSIS AND MONITORING USING EXTRADOMAIN-B FIBRONECTIN TARGETED PROBES” (Case Western Reserve University, priority 2020, published 2024):

Test system: BxPC3-GFP-Luc intrapancreatic tumors
Experiment: MRMI of BxPC3-GFP-Luc intrapancreatic tumors
Assay type: in vivo, mice
Conditions: 0.1 mmol/kg
Experimental: For flank xenograft models, 4×10^6 Capan-1 cells suspended in 100 μL of a 6 mg/mL Matrigel (Corning, Corning, NY) solution was injected subcutaneously into the flank of eight-week-old female nu/nu mice. The tumor bearing mice were imaged after tumor volumes exceeded 300 mm^3. For orthotopic intrapancreatic models, the pancreas of four-week-old female nu/nu mice were surgically exposed and 1×10^6 BxPC3-GFP-Luc or PANC-1-GFP-Luc cells suspended in 100 μL of an Matrigel solution (6 mg/mL) was injected into the pancreatic tissue. Prior to imaging, growth of tumor was verified by bioluminescence imaging with intraperitoneal injection of d-luciferin on IVIS Spectrum system (Perkin Elmer, Waltham, MA).
Mice bearing intrapancreatic tumors were anesthetized and a tail vein catheter was inserted. Image acquisition was performed on a MR Solutions 3T MRS 3000 scanner with a mouse radiofrequency coil. […]
Image files were exported and analyzed in Horus software. […] The contrast-to-noise ratio of the tumor (CNR) was calculated using the following equation, where σ_noise is the standard deviation of intensities from an ROI drawn outside of the mouse body: […]

Substance: ZD2-N3-Gd(HP-DO3A) (TVRTSAD; cyclised or stapled) [MT218, EDB-FN-targeted MRI contrast agent; ZD2 peptide conjugated to the clinical macrocyclic agent Gd(HP-DO3A)]
- time after injection at which tumor contrast enhancement returned to background level: 30 min

Substance: Gd(HP-DO3A) [gadoteridol, reference compound]
- time after injection at which tumor contrast enhancement returned to background level: 20 min
